Reference: article PMC3646808, “Aggregate-Reactivation Activity of the Molecular Chaperone ClpB from Ehrlichia chaffeensis” (PLoS ONE, 2013)
No constants are given. Whether binding was seen depends on the method and setting. For some assays here: Binding calls can cover weak binding; strength is not graded here. Tags and fused reporters may be left off the sequences shown.

What was measured:
[1] = biological target: T1, aggregated glucose-6-phosphate dehydrogenase from Leuconostoc mesenteroides (Leuconostoc mesenteroides) (UniProt P11411); assay: retention with aggregates on a 0.1-µm filter, SDS-PAGE; aggregated G6PDH (16 µM diluted 10-fold) with 1.5 µM ClpB and 6 mM AMPPNP in refolding buffer 1, 30°C, 20 min; filter-retained fraction on SDS-PAGE with Coomassie stain; both purified
T1 sequence: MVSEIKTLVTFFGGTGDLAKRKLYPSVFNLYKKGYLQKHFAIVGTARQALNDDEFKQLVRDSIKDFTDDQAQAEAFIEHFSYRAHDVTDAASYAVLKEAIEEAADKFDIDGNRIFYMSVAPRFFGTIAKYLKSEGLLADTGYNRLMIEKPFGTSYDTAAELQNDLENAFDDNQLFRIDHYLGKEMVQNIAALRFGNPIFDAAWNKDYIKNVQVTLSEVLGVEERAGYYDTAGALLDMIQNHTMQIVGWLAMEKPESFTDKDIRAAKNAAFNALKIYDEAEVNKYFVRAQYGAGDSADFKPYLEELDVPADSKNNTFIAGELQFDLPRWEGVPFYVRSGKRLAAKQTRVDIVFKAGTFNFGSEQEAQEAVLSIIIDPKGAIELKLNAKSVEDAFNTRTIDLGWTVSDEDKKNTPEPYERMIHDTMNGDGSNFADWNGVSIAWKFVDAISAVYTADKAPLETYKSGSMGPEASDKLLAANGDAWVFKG

[2] = biological target: T1, aggregated glucose-6-phosphate dehydrogenase from Leuconostoc mesenteroides (Leuconostoc mesenteroides); assay: retention with aggregates on a 0.1-µm filter, SDS-PAGE; aggregated G6PDH (16 µM diluted 10-fold) with 1.5 µM ClpB and 6 mM ATP in refolding buffer 1, 30°C, 20 min; filter-retained fraction on SDS-PAGE with Coomassie stain; both purified

## ClpB from Ehrlichia chaffeensis (E. chaffeensis)
[1]
  binding: no binding (only with 6 mM AMPPNP)
[2]
  binding: binds
